# Measurements published in patent US6703407B1, “Benzofuran compounds, compositions, and methods” (Eli Lilly and Company, priority 1994, dated 2004).
# At least one compound was matched to its structure with a doubt left.
# System: ovariectomized rats
# Assay: Serum cholesterol in ovariectomized rat post-menopausal model (4-day dosing)
# Assay type: in vivo, Sprague Dawley rats
# Conditions: orally administered at 0.1 mg/Kg/day
# Protocol: In the examples illustrating the methods, a post-menopausal model was used in which effects of different treatments upon circulating lipids were determined.
# Seventy-five day old female Sprague Dawley rats (weight range of 200 to 225 g) were obtained from Charles River Laboratories (Portage, Mich.). The animals were either bilaterally ovariectomized (OVX) or exposed to a Sham surgical procedure at Charles River Laboratories, and then shipped after one week. Upon arrival, they were housed in metal hanging cages in groups of 3 or 4 per cage and had ad libitum access to food (calcium content approximately 0.5%) and water for one week. Room temperature was maintained at 22.20±1.7° C. with a minimum relative humidity of 40%. The photoperiod in the room was 12 hours light and 12 hours dark.
# Dosing Regimen Tissue Collection. […] The animals were then sacrificed by asphyxiation with CO2, the uterus was removed through a midline incision, and a wet uterine weight was determined.
# Cholesterol Analysis. […] Serum cholesterol was determined using a Boehringer Mannheim Diagnostics high performance cholesterol assay. […] The hydrogen peroxide was then reacted with phenol and 4-aminophenazone in the presence of peroxidase to produce a p-quinone imine dye, which was read spectrophotemetrically at 500 nm. Cholesterol concentration was then calculated against a standard curve. […]
compound,measurement,value
"C#C[C@]1(O)CC[C@H]2[C@@H]3CCc4cc(O)ccc4[C@H]3CC[C@@]21C [EE2, 17α-ethynyl estradiol, reference compound]",serum cholesterol (in words),caused a decrease in serum cholesterol
